Results published in patent publication US20150216955A1, “IMMUNOMODULATORY AGENT AND USES THEREFOR” (The University of Queensland, priority 2012, published 2015).
Not every detail of the peptide structures is certain; ends, links or a residue may be inferred. Where a SMILES comes first, the peptide text is derived from it.

Test system: PBMC or SFMC
Assay type: cell-based, human

`CC(C)C[C@H](NC(=O)[C@H](CC(C)C)NC(=O)[C@@H](NC(=O)[C@@H](N)C(C)C)C(C)C)C(=O)N[C@H](C(=O)N[C@@H](C)C(=O)N[C@H](C(=O)N[C@@H](CCC(=O)O)C(=O)NCC(=O)N[C@@H](CCCNC(N)=O)C(=O)N[C@H](C(=O)N[C@@H](CCCNC(=N)N)C(=O)N[C@H](C(=O)N[C@@H](CC(N)=O)C(=O)N[C@@H](CO)C(=O)N[C@@H](C)C(=O)N[C@@H](Cc1ccc(O)cc1)C(=O)N[C@@H](CCC(N)=O)C(=O)N[C@@H](CC(=O)O)C(=O)N[C@@H](CCCCN)C(=O)O)C(C)C)C(C)C)[C@@H](C)O)C(C)C` [citrullinated aggrecan, VVLLVATEGCitVRVNSAYQDK] (HELM PEPTIDE1{V.V.L.L.V.A.T.E.G.[Cit].V.R.V.N.S.A.Y.Q.D.K}$$$$V2.0; N-terminus and C-terminus assumed) was tested. Which “proliferative SI (stimulation index)” value did it give?
The value was “significantly higher than to native aggrecan peptide”.
